Source: publication PMC10041115, “Cryo-EM structure of the four-subunit Rhodobacter sphaeroides cytochrome bc1 complex in styrene maleic acid nanodiscs” (Proceedings of the National Academy of Sciences of the …, 2023)
Results are given in words; binding and its absence hold for the method and conditions named. Binding calls can cover weak binding; strength is not graded here. For some assays here: Tags and fused reporters may be left off the sequences shown.

The chains behind the UniProt entries cited, without tags or fusion partners. Where a name states a change or a piece, a line headed by the entry shows the natural chain unless it says otherwise.
UniProt Q3J2Z2: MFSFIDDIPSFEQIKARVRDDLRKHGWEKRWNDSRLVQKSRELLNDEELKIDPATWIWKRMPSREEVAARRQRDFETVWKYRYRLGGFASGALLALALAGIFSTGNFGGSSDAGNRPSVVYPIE

Columns and labels:
[1] = target: T1, cytochrome c1 subunit of the Rhodobacter sphaeroides cytochrome bc1 complex, His10-tagged (Rhodobacter sphaeroides) (UniProt Q02760); assay: cryo-EM structure; purified four-subunit cyt bc1 in SMA native lipid nanodiscs, no inhibitors added, 20 mM Tris-HCl pH 8, 200 mM NaCl; C1 consensus map at 2.9 Å and a focused class at 3.75 Å (FSC 0.5); both purified
T1 sequence: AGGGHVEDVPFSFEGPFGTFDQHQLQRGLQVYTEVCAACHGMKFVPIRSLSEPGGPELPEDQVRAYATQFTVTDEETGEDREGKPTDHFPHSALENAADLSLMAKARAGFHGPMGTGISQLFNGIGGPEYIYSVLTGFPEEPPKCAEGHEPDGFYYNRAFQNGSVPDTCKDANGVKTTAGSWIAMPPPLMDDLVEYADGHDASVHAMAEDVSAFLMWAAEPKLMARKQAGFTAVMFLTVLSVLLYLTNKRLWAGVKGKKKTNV

[2] = target: T2, Rieske iron-sulfur protein subunit of the Rhodobacter sphaeroides cytochrome bc1 complex (Rhodobacter sphaeroides) (UniProt Q02762); assay: as above
T2 sequence: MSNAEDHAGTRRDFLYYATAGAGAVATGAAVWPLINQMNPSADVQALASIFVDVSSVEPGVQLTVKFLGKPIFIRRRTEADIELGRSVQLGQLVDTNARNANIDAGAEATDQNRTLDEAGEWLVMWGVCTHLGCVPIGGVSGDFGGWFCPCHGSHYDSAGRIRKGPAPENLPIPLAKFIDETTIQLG

Substance: subunit IV of the Rhodobacter sphaeroides cytochrome bc1 complex (from UniProt Q3J2Z2)
- binding [1]: binds
- binding [2]: binds
